These are yes or no findings as the source states them, for the method shown. Binding seen in cells or lysates may run through a third protein. Some binding calls cover weakened binding; strength is not graded here.

Sequences of proteins named here, by UniProt entry; tags and fusion partners are left off.
UniProt Q16665: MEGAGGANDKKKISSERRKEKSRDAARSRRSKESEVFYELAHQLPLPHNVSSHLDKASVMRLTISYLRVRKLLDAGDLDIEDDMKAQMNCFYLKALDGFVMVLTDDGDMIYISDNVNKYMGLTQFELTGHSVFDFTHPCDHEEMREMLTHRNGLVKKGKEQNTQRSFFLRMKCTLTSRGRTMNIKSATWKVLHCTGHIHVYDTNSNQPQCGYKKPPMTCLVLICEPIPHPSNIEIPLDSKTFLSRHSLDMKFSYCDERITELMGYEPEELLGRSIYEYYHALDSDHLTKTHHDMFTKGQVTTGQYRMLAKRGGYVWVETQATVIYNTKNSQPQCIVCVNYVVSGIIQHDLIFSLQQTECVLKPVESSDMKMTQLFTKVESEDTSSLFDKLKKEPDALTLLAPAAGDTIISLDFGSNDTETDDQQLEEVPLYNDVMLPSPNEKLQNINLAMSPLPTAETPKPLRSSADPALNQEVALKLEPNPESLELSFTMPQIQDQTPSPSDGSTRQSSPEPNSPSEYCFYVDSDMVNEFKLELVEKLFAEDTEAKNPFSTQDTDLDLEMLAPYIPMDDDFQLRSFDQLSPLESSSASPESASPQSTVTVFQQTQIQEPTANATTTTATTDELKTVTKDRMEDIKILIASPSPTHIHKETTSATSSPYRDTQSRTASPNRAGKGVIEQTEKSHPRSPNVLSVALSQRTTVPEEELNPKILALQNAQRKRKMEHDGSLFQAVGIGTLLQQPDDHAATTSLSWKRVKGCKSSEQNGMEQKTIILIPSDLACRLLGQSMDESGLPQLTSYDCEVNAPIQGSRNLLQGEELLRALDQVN

This experiment deals with hypoxia-inducible factor 1 alpha (HIF1A) (human (endogenous in HCT116 and RKO)) (UniProt Q16665). Nature of the experiment: co-IP; immunoprecipitation with anti-HIF1A from HCT116 and RKO cells; 1.0 mg protein with antibody overnight at 4 °C, 20 µL beads 2 h at 4 °C; WB with anti-HIF-1α and anti-ALDOC.

B1: Aldolase C (ALDOC) (protein, UniProt P09972 1-364)
chain: MPHSYPALSAEQKKELSDIALRIVAPGKGILAADESVGSMAKRLSQIGVENTEENRRLYRQVLFSADDRVKKCIGGVIFFHETLYQKDDNGVPFVRTIQDKGIVVGIKVDKGVVPLAGTDGETTTQGLDGLSERCAQYKKDGADFAKWRCVLKISERTPSALAILENANVLARYASICQQNGIVPIVEPEILPDGDHDLKRCQYVTEKVLAAVYKALSDHHVYLEGTLLKPNMVTPGHACPIKYTPEEIAMATVTALRRTVPPAVPGVTFLSGGQSEEEASFNLNAINRCPLPRPWALTFSYGRALQASALNAWRGQRDNAGAATEEFIKRAEVNGLAAQGKYEGSGEDGGAAAQSLYIANHAY
In the case of B1, the binding entry is given as “binds”.
